The values that follow are results of earlier work, collected in patent publication US4127671A, “P-acetamidophenyl diethylaminoacetate” (Societe Anonyme dite: HEXACHIME, priority 1977, dated 1978).

For this series the following is noted: p-acetamidophenol, background statement; cited from earlier work.

On to `CC(=O)Nc1ccc(O)cc1` [P-Acetamidophenol], for which the solubility in water entry is on record as “practically insoluble in water”.
